{"sequences": {"note": "Sequences of proteins named here, by UniProt entry; tags and fusion partners are left off. A change or cut given only in a name is not applied to a line headed by its entry.", "UniProt O75592": "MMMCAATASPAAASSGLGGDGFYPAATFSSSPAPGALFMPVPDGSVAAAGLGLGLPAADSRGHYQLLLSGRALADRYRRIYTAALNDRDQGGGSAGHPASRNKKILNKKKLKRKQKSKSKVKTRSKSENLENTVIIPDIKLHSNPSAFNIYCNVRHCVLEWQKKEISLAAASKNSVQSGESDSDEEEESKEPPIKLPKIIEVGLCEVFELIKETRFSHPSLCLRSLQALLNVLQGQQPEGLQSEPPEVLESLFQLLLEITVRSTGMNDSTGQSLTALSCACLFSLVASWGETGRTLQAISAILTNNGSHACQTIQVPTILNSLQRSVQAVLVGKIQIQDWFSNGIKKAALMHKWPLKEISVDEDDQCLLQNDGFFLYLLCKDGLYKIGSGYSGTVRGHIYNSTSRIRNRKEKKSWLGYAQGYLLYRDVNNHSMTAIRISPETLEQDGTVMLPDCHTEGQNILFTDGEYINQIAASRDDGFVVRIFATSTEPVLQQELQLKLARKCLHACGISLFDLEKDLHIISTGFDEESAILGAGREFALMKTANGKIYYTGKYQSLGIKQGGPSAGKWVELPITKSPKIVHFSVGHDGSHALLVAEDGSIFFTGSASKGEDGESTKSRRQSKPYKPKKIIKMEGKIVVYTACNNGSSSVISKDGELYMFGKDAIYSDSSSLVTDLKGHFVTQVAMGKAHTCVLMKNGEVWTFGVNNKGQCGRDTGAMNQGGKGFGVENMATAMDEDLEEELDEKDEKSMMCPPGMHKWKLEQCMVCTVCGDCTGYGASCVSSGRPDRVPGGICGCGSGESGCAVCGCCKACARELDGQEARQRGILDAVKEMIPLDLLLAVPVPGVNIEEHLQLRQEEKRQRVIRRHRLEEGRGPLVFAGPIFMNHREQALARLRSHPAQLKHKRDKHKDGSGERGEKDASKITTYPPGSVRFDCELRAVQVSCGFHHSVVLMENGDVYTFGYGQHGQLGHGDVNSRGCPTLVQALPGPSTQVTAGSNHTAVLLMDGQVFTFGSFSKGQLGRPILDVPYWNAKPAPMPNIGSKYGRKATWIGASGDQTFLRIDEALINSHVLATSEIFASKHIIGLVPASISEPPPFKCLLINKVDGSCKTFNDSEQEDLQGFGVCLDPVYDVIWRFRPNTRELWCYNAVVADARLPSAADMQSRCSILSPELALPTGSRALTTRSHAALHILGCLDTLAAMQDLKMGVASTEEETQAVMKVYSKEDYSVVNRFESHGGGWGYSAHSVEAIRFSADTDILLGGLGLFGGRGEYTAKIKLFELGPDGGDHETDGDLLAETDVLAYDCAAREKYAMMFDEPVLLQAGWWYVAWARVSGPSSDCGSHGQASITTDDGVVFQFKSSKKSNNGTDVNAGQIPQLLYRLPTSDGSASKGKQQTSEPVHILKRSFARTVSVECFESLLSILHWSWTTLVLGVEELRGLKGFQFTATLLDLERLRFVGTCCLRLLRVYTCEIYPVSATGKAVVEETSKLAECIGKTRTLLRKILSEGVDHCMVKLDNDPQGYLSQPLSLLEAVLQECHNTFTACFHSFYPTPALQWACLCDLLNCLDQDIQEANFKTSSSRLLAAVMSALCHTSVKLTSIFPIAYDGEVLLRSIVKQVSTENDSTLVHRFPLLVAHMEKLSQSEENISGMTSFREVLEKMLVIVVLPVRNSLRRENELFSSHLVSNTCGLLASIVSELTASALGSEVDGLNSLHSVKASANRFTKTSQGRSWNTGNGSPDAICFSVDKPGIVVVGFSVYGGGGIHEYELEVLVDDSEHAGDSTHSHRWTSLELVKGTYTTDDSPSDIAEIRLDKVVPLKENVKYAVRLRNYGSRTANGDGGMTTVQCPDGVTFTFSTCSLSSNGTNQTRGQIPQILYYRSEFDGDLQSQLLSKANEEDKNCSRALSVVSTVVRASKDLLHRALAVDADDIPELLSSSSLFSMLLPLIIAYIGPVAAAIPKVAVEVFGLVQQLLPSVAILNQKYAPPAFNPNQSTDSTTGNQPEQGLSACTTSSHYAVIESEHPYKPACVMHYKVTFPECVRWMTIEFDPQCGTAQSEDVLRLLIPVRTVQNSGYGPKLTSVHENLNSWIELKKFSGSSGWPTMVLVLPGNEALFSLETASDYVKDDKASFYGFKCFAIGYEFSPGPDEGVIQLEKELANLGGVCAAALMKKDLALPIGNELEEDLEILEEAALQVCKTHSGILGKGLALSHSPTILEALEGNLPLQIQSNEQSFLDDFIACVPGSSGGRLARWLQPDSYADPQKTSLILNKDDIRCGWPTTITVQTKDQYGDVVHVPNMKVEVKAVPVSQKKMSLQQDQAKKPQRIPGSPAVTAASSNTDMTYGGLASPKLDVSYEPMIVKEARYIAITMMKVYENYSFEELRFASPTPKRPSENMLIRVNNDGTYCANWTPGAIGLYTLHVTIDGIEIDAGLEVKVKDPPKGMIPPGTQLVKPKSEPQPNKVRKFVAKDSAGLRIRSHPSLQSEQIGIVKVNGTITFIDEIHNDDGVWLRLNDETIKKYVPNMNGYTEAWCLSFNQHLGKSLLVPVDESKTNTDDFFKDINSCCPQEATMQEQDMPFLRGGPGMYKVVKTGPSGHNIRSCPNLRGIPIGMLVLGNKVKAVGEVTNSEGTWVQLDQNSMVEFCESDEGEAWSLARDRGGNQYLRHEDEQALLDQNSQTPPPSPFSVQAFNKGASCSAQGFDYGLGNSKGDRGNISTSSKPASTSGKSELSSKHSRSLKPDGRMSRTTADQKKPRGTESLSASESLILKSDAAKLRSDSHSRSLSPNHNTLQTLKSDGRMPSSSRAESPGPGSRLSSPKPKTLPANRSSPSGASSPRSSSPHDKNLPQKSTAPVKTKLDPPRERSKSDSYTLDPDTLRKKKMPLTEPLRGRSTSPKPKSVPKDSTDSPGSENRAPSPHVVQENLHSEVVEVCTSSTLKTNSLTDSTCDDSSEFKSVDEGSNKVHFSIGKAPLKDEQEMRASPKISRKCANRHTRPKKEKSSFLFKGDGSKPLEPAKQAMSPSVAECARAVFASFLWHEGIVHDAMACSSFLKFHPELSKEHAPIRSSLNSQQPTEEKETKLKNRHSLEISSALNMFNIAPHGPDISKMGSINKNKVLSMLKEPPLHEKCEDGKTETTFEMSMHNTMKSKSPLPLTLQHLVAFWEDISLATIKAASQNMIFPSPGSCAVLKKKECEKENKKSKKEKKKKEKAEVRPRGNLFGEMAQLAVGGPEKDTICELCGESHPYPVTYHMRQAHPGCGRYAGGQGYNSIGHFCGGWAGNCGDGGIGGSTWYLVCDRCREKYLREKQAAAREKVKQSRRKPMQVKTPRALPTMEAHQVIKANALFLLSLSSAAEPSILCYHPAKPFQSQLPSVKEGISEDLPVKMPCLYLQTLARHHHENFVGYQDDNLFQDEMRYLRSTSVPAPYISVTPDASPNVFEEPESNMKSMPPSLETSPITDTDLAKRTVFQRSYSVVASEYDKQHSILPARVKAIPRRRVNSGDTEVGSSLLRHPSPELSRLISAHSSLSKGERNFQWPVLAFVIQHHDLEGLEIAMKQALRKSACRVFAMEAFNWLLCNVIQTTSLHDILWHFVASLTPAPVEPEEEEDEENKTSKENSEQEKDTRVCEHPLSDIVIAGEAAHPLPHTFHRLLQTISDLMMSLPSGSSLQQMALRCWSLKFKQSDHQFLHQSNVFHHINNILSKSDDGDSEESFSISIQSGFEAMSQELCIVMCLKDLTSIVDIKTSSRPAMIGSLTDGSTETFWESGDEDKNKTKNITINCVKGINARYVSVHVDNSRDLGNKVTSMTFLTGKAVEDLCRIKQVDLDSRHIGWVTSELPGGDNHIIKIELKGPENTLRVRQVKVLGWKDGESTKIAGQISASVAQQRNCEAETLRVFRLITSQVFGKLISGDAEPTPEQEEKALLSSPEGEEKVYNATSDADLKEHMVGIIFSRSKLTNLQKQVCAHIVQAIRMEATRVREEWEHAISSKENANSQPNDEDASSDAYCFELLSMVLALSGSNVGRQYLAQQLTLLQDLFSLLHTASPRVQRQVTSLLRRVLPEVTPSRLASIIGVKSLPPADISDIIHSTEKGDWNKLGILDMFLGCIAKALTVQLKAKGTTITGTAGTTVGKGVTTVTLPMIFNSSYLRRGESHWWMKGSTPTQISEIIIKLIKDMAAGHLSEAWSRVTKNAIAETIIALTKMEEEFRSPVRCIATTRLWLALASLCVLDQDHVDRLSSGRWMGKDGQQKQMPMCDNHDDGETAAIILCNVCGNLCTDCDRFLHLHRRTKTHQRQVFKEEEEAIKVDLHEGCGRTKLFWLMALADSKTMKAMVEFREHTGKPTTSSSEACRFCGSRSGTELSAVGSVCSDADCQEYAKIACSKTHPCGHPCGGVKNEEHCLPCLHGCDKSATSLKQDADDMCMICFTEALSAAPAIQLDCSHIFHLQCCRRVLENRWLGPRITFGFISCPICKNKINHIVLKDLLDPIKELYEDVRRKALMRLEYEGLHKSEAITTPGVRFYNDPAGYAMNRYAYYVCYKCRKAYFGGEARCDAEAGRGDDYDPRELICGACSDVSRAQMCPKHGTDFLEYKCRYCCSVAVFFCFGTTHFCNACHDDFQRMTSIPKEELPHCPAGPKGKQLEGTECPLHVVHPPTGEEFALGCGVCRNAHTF", "UniProt Q13330": "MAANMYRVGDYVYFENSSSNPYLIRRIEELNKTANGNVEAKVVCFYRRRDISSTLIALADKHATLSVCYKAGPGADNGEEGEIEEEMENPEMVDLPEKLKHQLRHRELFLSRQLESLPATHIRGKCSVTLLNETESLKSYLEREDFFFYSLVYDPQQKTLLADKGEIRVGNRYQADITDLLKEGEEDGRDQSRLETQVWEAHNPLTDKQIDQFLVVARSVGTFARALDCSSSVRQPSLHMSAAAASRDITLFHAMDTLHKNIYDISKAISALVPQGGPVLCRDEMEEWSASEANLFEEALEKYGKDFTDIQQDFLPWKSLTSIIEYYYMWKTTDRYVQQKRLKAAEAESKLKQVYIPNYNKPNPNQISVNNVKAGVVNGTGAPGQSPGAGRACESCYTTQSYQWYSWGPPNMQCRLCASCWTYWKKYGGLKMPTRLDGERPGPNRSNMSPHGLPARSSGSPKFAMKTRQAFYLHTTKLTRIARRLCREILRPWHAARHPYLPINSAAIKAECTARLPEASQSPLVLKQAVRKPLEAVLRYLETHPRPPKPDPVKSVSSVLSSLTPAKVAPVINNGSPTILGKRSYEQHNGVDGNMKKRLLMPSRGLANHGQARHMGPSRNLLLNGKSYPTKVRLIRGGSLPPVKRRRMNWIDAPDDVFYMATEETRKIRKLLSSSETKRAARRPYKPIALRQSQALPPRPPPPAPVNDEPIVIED", "UniProt Q7Z6M4": "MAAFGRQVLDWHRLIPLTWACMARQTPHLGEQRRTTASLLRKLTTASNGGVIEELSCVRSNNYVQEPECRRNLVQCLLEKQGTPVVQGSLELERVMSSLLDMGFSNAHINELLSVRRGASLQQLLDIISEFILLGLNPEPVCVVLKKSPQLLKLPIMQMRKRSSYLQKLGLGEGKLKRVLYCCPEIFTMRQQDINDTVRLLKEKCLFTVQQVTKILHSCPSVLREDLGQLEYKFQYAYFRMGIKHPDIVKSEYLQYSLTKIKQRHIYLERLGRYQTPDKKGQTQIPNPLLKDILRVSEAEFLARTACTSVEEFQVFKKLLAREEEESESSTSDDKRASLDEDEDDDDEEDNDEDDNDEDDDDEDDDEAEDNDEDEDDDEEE", "UniProt Q9NXD2": "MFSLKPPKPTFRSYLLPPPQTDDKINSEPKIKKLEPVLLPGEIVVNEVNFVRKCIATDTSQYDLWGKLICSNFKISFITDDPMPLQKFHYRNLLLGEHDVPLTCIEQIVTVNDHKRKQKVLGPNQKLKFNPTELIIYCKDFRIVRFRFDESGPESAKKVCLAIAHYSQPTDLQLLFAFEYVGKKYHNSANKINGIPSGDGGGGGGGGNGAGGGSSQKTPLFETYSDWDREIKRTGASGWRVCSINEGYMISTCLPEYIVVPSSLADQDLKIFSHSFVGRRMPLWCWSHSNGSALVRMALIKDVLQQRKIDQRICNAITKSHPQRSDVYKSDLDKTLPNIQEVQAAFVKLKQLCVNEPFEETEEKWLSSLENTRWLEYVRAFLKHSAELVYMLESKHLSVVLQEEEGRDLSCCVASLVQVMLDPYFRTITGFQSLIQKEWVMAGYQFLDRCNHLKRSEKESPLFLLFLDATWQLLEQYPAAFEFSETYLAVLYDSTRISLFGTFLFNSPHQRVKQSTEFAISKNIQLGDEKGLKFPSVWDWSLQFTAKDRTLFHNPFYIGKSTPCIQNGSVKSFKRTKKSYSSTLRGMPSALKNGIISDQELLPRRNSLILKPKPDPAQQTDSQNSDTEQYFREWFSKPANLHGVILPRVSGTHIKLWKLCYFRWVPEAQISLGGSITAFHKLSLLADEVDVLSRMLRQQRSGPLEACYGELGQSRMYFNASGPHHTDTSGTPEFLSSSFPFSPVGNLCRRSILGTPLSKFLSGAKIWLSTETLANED"}, "source": "the supplement of paper PMC12067093", "about": "“Discovery and optimisation of a covalent ligand for TRIM25 and its application to targeted protein ubiquitination” (Chemical Science, 2025)", "note": "This is one part of the list.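 Also: competitive profiling in live THP-1 cells: cysteine peptides tagged with an iodoacetamide desthiobiotin (IA-DTB) probe, intensity after compound treatment relative to DMSO-treated cells.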", "data": [{"compound": "Cc1cc(ccc1-c1ccccc1)C(=O)N1CCCN(CC1)C(=O)CCl [compound 10]", "test": "probe-labelled cysteine peptide fold change vs DMSO (competition) (log2 fold change); higher = less target engagement (more negative = stronger competition)", "conditions": "10 µM; THP-1; incubation time: 4 h", "values": [{"target": "MTMR6_Q9Y217_156_ICETYPR (UniProt Q9Y217)", "probe-labelled cysteine peptide fold change": -0.0558}, {"target": "MYBBP1A_Q9BQG0_968_AGTDPSHMPTGPQAASCLDLNLVTR (UniProt Q9BQG0)", "probe-labelled cysteine peptide fold change": -0.306}, {"target": "MTR_Q99707_812_VIDLGVMTPCDK (UniProt Q99707)", "probe-labelled cysteine peptide fold change": -0.219}, {"target": "MYCBP2_O75592_2044_VTFPECVR (UniProt O75592)", "probe-labelled cysteine peptide fold change": 0.131}, {"target": "MTMR3_Q13615_188_LCGSYPQELIVPAWITDK (UniProt Q13615)", "probe-labelled cysteine peptide fold change": 0.117}, {"target": "MRPS24_Q96EL2_103_FMWGTFPGCLADQLVLK (UniProt Q96EL2)", "probe-labelled cysteine peptide fold change": 0.151}, {"target": "MVB12B_Q9H7P6_267_FSCVPESMQPFDLLGITIK (UniProt Q9H7P6)", "probe-labelled cysteine peptide fold change": 0.25}, {"target": "MYL6_P60660_2_CDFTEDQTAEFK (UniProt P60660)", "probe-labelled cysteine peptide fold change": -0.113}, {"target": "MYD88_Q99836_233_ECDFQTK (UniProt Q99836)", "probe-labelled cysteine peptide fold change": -0.0727}, {"target": "MTMR6_Q9Y217_383_CGQLDGDPK (UniProt Q9Y217)", "probe-labelled cysteine peptide fold change": 0.14}, {"target": "MTHFS_P49914_180_EQICLQVPVNENDMK (UniProt P49914)", "probe-labelled cysteine peptide fold change": 0.217}, {"target": "MSH6_P52701_579_FFIGQFSDDRHCSR (UniProt P52701)", "probe-labelled cysteine peptide fold change": -0.125}, {"target": "MRPS30_Q9NP92_393_KNICWGTQSK (UniProt Q9NP92)", "probe-labelled cysteine peptide fold change": -0.162}, {"target": "MTR_Q99707_1153_ELWAYCGSEQLDVADLRR (UniProt Q99707)", "probe-labelled cysteine peptide fold change": -0.0511}, {"target": "MUT_P22033_540_CLAALTECAASGDGNILALAVDASR (UniProt P22033)", "probe-labelled cysteine peptide fold change": 0.148}, {"target": "MYCBP2_O75592_3051_AVFASFLWHEGIVHDAMACSSFLK (UniProt O75592)", "probe-labelled cysteine peptide fold change": -0.0655}, {"target": "MTA1_Q13330_281_AISALVPQGGPVLCR (UniProt Q13330)", "probe-labelled cysteine peptide fold change": 0.093}, {"target": "MYBBP1A_Q9BQG0_338_HYGEHVCTAK (UniProt Q9BQG0)", "probe-labelled cysteine peptide fold change": 0.0441}, {"target": "MYH10_P35580_176_CMLQDREDQSILCTGESGAGK (UniProt P35580)", "probe-labelled cysteine peptide fold change": -0.0995}, {"target": "MTERF4_Q7Z6M4_69_SNNYVQEPECR (UniProt Q7Z6M4)", "probe-labelled cysteine peptide fold change": -0.323}, {"target": "MTR_Q99707_1081_DSASTEPYYCLSDFIAPLHSGIR (UniProt Q99707)", "probe-labelled cysteine peptide fold change": -0.0513}, {"target": "MTFR1_Q15390_145_ICALENELAALR (UniProt Q15390)", "probe-labelled cysteine peptide fold change": 0.0366}, {"target": "MYH9_P35579_917_KQELEEICHDLEARVEEEEER (UniProt P35579)", "probe-labelled cysteine peptide fold change": -0.258}, {"target": "MRPS27_Q92552_101_HSPNCWYLR (UniProt Q92552)", "probe-labelled cysteine peptide fold change": -0.0636}, {"target": "MYH9_P35579_569_ADFCIIHYAGK (UniProt P35579)", "probe-labelled cysteine peptide fold change": 0.058}, {"target": "MYCBP2_O75592_4409_NEEHCLPCLHGCDK (UniProt O75592)", "probe-labelled cysteine peptide fold change": 0.00756}, {"target": "MSH6_P52701_615_SSLSCSLQEGLIPGSQFWDASK (UniProt P52701)", "probe-labelled cysteine peptide fold change": -0.337}, {"target": "MTM1_Q13496_113_GENSYGLDITCK (UniProt Q13496)", "probe-labelled cysteine peptide fold change": -0.125}, {"target": "MTMR10_Q9NXD2_104_NLLLGEHDVPLTCIEQIVTVNDHK (UniProt Q9NXD2)", "probe-labelled cysteine peptide fold change": -0.0175}, {"target": "MUT_P22033_560_CTVGEITDALK (UniProt P22033)", "probe-labelled cysteine peptide fold change": 0.0307}, {"target": "MTHFD1_P11586_691_YSGLCPHVVVLVATVR (UniProt P11586)", "probe-labelled cysteine peptide fold change": -0.297}, {"target": "MYCBP2_O75592_222_FSHPSLCLR (UniProt O75592)", "probe-labelled cysteine peptide fold change": -0.0571}, {"target": "MSRB2_Q9Y3D2_105_KYCSGTGWPSFSEAHGTSGSDESHTGILR (UniProt Q9Y3D2)", "probe-labelled cysteine peptide fold change": 0.00846}, {"target": "MTOR_P42345_2243_YAVIPLSTNSGLIGWVPHCDTLHALIR (UniProt P42345)", "probe-labelled cysteine peptide fold change": -0.0623}, {"target": "MSTO1_Q9BUK6_411_CFAQSVVLR (UniProt Q9BUK6)", "probe-labelled cysteine peptide fold change": 0.0387}]}, {"compound": "Cc1cc(ccc1-c1ccccc1)C(=O)N1CCCN(CC1)C(=O)CCl [compound 10]", "test": "probe-labelled cysteine peptide fold change vs DMSO (competition) (log2 fold change); higher = less target engagement (more negative = stronger competition)", "conditions": "50 µM; THP-1; incubation time: 4 h", "values": [{"target": "MTMR6_Q9Y217_156_ICETYPR (UniProt Q9Y217)", "probe-labelled cysteine peptide fold change": 0.0889}, {"target": "MYBBP1A_Q9BQG0_968_AGTDPSHMPTGPQAASCLDLNLVTR (UniProt Q9BQG0)", "probe-labelled cysteine peptide fold change": -0.421}, {"target": "MTR_Q99707_812_VIDLGVMTPCDK (UniProt Q99707)", "probe-labelled cysteine peptide fold change": -0.788}, {"target": "MYCBP2_O75592_2044_VTFPECVR (UniProt O75592)", "probe-labelled cysteine peptide fold change": -0.0129}, {"target": "MTMR3_Q13615_188_LCGSYPQELIVPAWITDK (UniProt Q13615)", "probe-labelled cysteine peptide fold change": 0.105}, {"target": "MRPS24_Q96EL2_103_FMWGTFPGCLADQLVLK (UniProt Q96EL2)", "probe-labelled cysteine peptide fold change": 0.0724}, {"target": "MVB12B_Q9H7P6_267_FSCVPESMQPFDLLGITIK (UniProt Q9H7P6)", "probe-labelled cysteine peptide fold change": -0.28}, {"target": "MYL6_P60660_2_CDFTEDQTAEFK (UniProt P60660)", "probe-labelled cysteine peptide fold change": -0.215}, {"target": "MYD88_Q99836_233_ECDFQTK (UniProt Q99836)", "probe-labelled cysteine peptide fold change": -0.614}, {"target": "MTMR6_Q9Y217_383_CGQLDGDPK (UniProt Q9Y217)", "probe-labelled cysteine peptide fold change": 0.0321}, {"target": "MTHFS_P49914_180_EQICLQVPVNENDMK (UniProt P49914)", "probe-labelled cysteine peptide fold change": 0.276}, {"target": "MSH6_P52701_579_FFIGQFSDDRHCSR (UniProt P52701)", "probe-labelled cysteine peptide fold change": -0.00295}, {"target": "MRPS30_Q9NP92_393_KNICWGTQSK (UniProt Q9NP92)", "probe-labelled cysteine peptide fold change": -0.72}, {"target": "MTR_Q99707_1153_ELWAYCGSEQLDVADLRR (UniProt Q99707)", "probe-labelled cysteine peptide fold change": -0.000183}, {"target": "MUT_P22033_540_CLAALTECAASGDGNILALAVDASR (UniProt P22033)", "probe-labelled cysteine peptide fold change": 0.111}, {"target": "MYCBP2_O75592_3051_AVFASFLWHEGIVHDAMACSSFLK (UniProt O75592)", "probe-labelled cysteine peptide fold change": 0.0836}, {"target": "MTA1_Q13330_281_AISALVPQGGPVLCR (UniProt Q13330)", "probe-labelled cysteine peptide fold change": 0.56}, {"target": "MYBBP1A_Q9BQG0_338_HYGEHVCTAK (UniProt Q9BQG0)", "probe-labelled cysteine peptide fold change": 0.083}, {"target": "MYH10_P35580_176_CMLQDREDQSILCTGESGAGK (UniProt P35580)", "probe-labelled cysteine peptide fold change": 0.342}, {"target": "MTERF4_Q7Z6M4_69_SNNYVQEPECR (UniProt Q7Z6M4)", "probe-labelled cysteine peptide fold change": -0.662}, {"target": "MTR_Q99707_1081_DSASTEPYYCLSDFIAPLHSGIR (UniProt Q99707)", "probe-labelled cysteine peptide fold change": 0.00578}, {"target": "MTFR1_Q15390_145_ICALENELAALR (UniProt Q15390)", "probe-labelled cysteine peptide fold change": -0.607}, {"target": "MYH9_P35579_917_KQELEEICHDLEARVEEEEER (UniProt P35579)", "probe-labelled cysteine peptide fold change": -0.451}, {"target": "MRPS27_Q92552_101_HSPNCWYLR (UniProt Q92552)", "probe-labelled cysteine peptide fold change": 0.0342}, {"target": "MYH9_P35579_569_ADFCIIHYAGK (UniProt P35579)", "probe-labelled cysteine peptide fold change": 0.292}, {"target": "MYCBP2_O75592_4409_NEEHCLPCLHGCDK (UniProt O75592)", "probe-labelled cysteine peptide fold change": -0.0673}, {"target": "MSH6_P52701_615_SSLSCSLQEGLIPGSQFWDASK (UniProt P52701)", "probe-labelled cysteine peptide fold change": -0.752}, {"target": "MTM1_Q13496_113_GENSYGLDITCK (UniProt Q13496)", "probe-labelled cysteine peptide fold change": 0.0925}, {"target": "MTMR10_Q9NXD2_104_NLLLGEHDVPLTCIEQIVTVNDHK (UniProt Q9NXD2)", "probe-labelled cysteine peptide fold change": 0.0677}, {"target": "MUT_P22033_560_CTVGEITDALK (UniProt P22033)", "probe-labelled cysteine peptide fold change": 0.0797}, {"target": "MTHFD1_P11586_691_YSGLCPHVVVLVATVR (UniProt P11586)", "probe-labelled cysteine peptide fold change": -0.11}, {"target": "MYCBP2_O75592_222_FSHPSLCLR (UniProt O75592)", "probe-labelled cysteine peptide fold change": 0.147}, {"target": "MSRB2_Q9Y3D2_105_KYCSGTGWPSFSEAHGTSGSDESHTGILR (UniProt Q9Y3D2)", "probe-labelled cysteine peptide fold change": -0.434}, {"target": "MTOR_P42345_2243_YAVIPLSTNSGLIGWVPHCDTLHALIR (UniProt P42345)", "probe-labelled cysteine peptide fold change": -0.0381}, {"target": "MSTO1_Q9BUK6_411_CFAQSVVLR (UniProt Q9BUK6)", "probe-labelled cysteine peptide fold change": 0.114}]}]}
